Reference: patent US20170305896A1, “PYRIMIDINONE COMPOUND” (Sumitomo Chemical Company, Limited, priority 2014, published 2017)
Some results were stated once for a whole list of compounds, not compound by compound. For at least one compound, name, drawing or mass did not settle the structure.

Columns and labels:
[1] = tested on: cabbage moth (Plutella xylostella); assay: Test Example 8: sprayed cabbage leaf against cabbage moth larvae, 200 ppm; type: in vivo; settings: 20 mL/cup sprayed on cabbage, 2nd instar larvae, after 5 days at 25° C.
[2] = tested on: cucurbit leaf beetle (Aulacophora femoralis); assay: Test Example 12: sprayed cucumber leaf against cucurbit leaf beetle larvae, 50 ppm; type: in vivo; settings: 30 mL/cup sprayed on cucumber, 2nd instar larvae, after 5 days at 25° C.

SMILES | Mortality of insects [1] [%] | Mortality of insects [2] [%]
CCS(=O)(=O)c1cccnc1-c1cc(=O)n(CCC(F)(F)C(F)(F)C(F)(F)C(F)(F)F)cn1 [compound 41] | ≥ 80 | ≥ 80
CCSc1cc(C(F)(F)F)cnc1-c1cc(=O)n(CC(F)(F)C(F)C(F)(F)F)cn1 (stereo not shown) [compound 43] | ≥ 80 | ≥ 80
